These are yes or no findings as the source states them, for the method shown. Binding seen in cells or lysates may run through a third protein. These calls come from enrichment with a bait or labelling near it, and not all partners need be listed. Where a sequence is shown, tags or fusion partners need not be part of it.
Biological target: T1, Histidine-Tagged Primary Sequence of the MUC1 Growth Factor Receptor (His-var-PSMGFR) (human)
T1 sequence (peptide): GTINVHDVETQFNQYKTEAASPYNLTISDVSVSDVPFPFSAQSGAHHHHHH
Test: pull-down from T47D lysate on His-var-PSMGFR NTA-Ni beads, gel band, mass spectrometry

Sequences of proteins named here, by UniProt entry; tags and fusion partners are left off. A change or cut given only in a name is not applied to a line headed by its entry. Residues count along the entry.
UniProt P08758, residues 2-320: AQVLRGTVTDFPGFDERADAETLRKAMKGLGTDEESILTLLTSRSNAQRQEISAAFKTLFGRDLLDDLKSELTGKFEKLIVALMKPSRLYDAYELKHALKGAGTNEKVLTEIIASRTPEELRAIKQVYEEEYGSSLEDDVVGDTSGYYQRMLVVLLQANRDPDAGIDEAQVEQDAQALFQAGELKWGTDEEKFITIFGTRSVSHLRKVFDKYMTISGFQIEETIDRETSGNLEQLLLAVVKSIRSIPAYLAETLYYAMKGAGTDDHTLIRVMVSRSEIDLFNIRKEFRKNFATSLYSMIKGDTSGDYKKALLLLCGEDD
UniProt P15531, residues 2-152: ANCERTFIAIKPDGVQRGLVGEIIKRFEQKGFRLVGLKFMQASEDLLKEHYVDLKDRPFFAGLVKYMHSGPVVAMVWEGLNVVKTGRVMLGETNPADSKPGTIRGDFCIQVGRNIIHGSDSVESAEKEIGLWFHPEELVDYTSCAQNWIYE
UniProt P62258: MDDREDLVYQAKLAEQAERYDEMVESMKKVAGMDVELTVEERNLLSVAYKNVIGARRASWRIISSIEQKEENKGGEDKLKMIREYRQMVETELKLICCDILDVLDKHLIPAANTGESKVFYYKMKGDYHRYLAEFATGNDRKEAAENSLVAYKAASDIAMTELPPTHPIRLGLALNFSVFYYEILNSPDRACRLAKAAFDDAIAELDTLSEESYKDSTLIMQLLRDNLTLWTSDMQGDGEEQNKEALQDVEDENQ

binding	Substance
binds	human annexin V with Proline substitution by Thrionine (from UniProt P08758 2-320)
binds	Metastasis Inhibition Factor NM23 (from UniProt P15531 2-152) (ligand)
binds	14-3-3 epsilon (from UniProt P62258 1-255) (ligand)

— patent publication EP2363410A1
